The list is a part of this screen's results and no random one: it gathers tests that were run many times, whatever their T/C, doses with no T/C, and many T/C values between a quarter and a half above the control. Further doses and runs are listed elsewhere. T/C gives the treated animals as a percentage of the vehicle group. Some entries give survivors of the animals treated and no T/C: the source holds a T/C of zero for them, seemingly a mark for toxic or unscored doses. Some survivor counts are full or nearly so, which does not show that the dose was tolerated: the source hardly ever lists a survival T/C far under the control, and the zero likely stands for such cases as well. Survivors were counted at the toxicity check, usually on the fifth day, unless a day is given; later deaths do not show. Schedule codes are those of the source, taken here to give the interval after Q, in days (D) or hours (H), and the number of doses after X. Some schedules carry Z or #; the key to these is not given. For survival time, this PubChem deposit counts one and a half times the control or more as active, and values a quarter to a half above the control carry no call in these data; other NCI protocols may use other cut-offs. Some entries were tested several times; their values stand side by side, smallest first. Some T/C values carry the count of animals alive at the toxicity check (mostly the fifth day); where none is given, no animal had died by that day.
Test system: L1210 leukemia ip in BDF1 mice, survival T/C
Assay: NCI In Vivo Anticancer Drug Screen. Data for tumor model L1210 Leukemia (intraperitoneal) in B6D2F1 (BDF1) mice
Conditions: T/C endpoint: mean survival time, higher T/C = longer survival
[1] = dose: 75.0 mg/kg/injection, schedule: Q04DX003 (ip), vehicle: saline
[2] = dose: 300.0 mg/kg/injection, schedule: Q01DX001 (ip), vehicle: saline
[3] = dose: 100.0 mg/kg/injection, schedule: Q04DX003 (ip), vehicle: saline with Tween-80
[4] = dose: 400.0 mg/kg/injection, schedule: Q04DX003 (ip), vehicle: saline with Tween-80

SMILES: c1nc(SC2=NCCN2)c2[nH]cnc2n1
- T/C (dose: 10.5 mg/kg/injection, schedule: Q01DX Z (ip), vehicle: saline): 128 % of control
- T/C (dose: 21.0 mg/kg/injection, schedule: Q01DX Z (ip), vehicle: saline): 131 and 132 % of control
- T/C (dose: 21.0 mg/kg/injection, schedule: Q01DX Z (oral), vehicle: saline): 126 % of control
- T/C (dose: 34.0 mg/kg/injection, schedule: Q01DX009 (ip), vehicle: saline): 126 % of control
- T/C (dose: 42.0 mg/kg/injection, schedule: Q01DX Z (oral), vehicle: saline): 136 and 136 % of control [5 of 6 alive]
- T/C (dose: 50.0 mg/kg/injection, schedule: Q04DX003 (ip), vehicle: saline): 125 % of control
- survivor count (dose: 75.0 mg/kg/injection, schedule: Q01DX009 (ip), vehicle: saline): 1 of 6
- T/C [1]: 146 % of control [5 of 6 alive]
- survivor count [1]: 1 of 6
- survivor count (dose: 80.0 mg/kg/injection, schedule: Q01DX001 (ip), vehicle: saline): 0 of 4
- survivor count (dose: 84.0 mg/kg/injection, schedule: Q01DX Z (ip), vehicle: saline): 2 of 6
- T/C (dose: 84.0 mg/kg/injection, schedule: Q01DX Z (oral), vehicle: saline): 147 % of control
- survivor count (dose: 100.0 mg/kg/injection, schedule: Q01DX001 (ip), vehicle: saline): 1 of 4
- survivor count (dose: 100.0 mg/kg/injection, schedule: Q04DX003 (ip), vehicle: saline): 0 of 6
- survivor count (dose: 168.0 mg/kg/injection, schedule: Q01DX Z (ip), vehicle: saline): 0 of 6
- survivor count (dose: 200.0 mg/kg/injection, schedule: Q01DX001 (ip), vehicle: saline): 0 of 4
- survivor count (dose: 200.0 mg/kg/injection, schedule: Q04DX003 (ip), vehicle: saline): 0 of 6
- survivor count (dose: 336.0 mg/kg/injection, schedule: Q01DX Z (oral), vehicle: saline): 0 of 6
- survivor count (dose: 400.0 mg/kg/injection, schedule: Q01DX001 (ip), vehicle: saline): 0 of 4
- survivor count (dose: 400.0 mg/kg/injection, schedule: Q04DX003 (ip), vehicle: saline): 0 of 6

SMILES: Cc1ccc(C)c(CCl)c1
- survivor count [2]: 3 of 6

SMILES: CCC(CC)C1CC[N-]CC1.CCC(CC)C1CC[N-]CC1.N#C[S-].N#C[S-].[Cu]
- survivor count (dose: 150.0 mg/kg/injection, schedule: Q01DX001 (ip), vehicle: saline): 0 of 6
- survivor count [2]: 0 of 6

SMILES: O=C1C=CC(=O)N1c1ccc(O)cc1
- survivor count (dose: 10.0 mg/kg/injection, schedule: Q04DX003 (ip), vehicle: Klucel (hydroxypropylcellulose) (HPC)): 2 of 6
- survivor count (dose: 20.0 mg/kg/injection, schedule: Q04DX003 (ip), vehicle: Klucel (hydroxypropylcellulose) (HPC)): 1 of 6
- survivor count (dose: 40.0 mg/kg/injection, schedule: Q04DX003 (ip), vehicle: Klucel (hydroxypropylcellulose) (HPC)): 0 of 6
- survivor count (dose: 80.0 mg/kg/injection, schedule: Q04DX003 (ip), vehicle: Klucel (hydroxypropylcellulose) (HPC)): 0 of 6
- survivor count (dose: 100.0 mg/kg/injection, schedule: Q04DX003 (ip), vehicle: Klucel (hydroxypropylcellulose) (HPC)): 0 of 6
- survivor count (dose: 200.0 mg/kg/injection, schedule: Q04DX003 (ip), vehicle: Klucel (hydroxypropylcellulose) (HPC)): 0 of 6
- survivor count (dose: 400.0 mg/kg/injection, schedule: Q04DX003 (ip), vehicle: Klucel (hydroxypropylcellulose) (HPC)): 0 of 6

SMILES: C[As](C)[Se]C1OC(CO)C(O)C(O)C1O (stereo not drawn)
- survivor count [3]: 6 of 6
- survivor count (dose: 200.0 mg/kg/injection, schedule: Q04DX003 (ip), vehicle: saline with Tween-80): 1 of 6
- survivor count [4]: 0 of 6

SMILES: CC1(C)N=C(N)N=C(N)N1c1cccc(OCCOc2ccccc2N)c1
- survivor count (dose: 100.0 mg/kg/injection, schedule: Q01DX001 (ip), vehicle: Klucel (hydroxypropylcellulose) (HPC)): 0 of 3
- survivor count (dose: 200.0 mg/kg/injection, schedule: Q01DX001 (ip), vehicle: Klucel (hydroxypropylcellulose) (HPC)): 0 of 3
- survivor count (dose: 400.0 mg/kg/injection, schedule: Q01DX001 (ip), vehicle: Klucel (hydroxypropylcellulose) (HPC)): 0 of 3

SMILES: O=C(NC1CCCCC1)c1ccc2ccccc2c1O
- survivor count [3]: 1 of 6

SMILES: Cc1c2ccccc2c(C)c2c1ccc1ccccc12
- T/C (dose: 12.37 mg/kg/injection, schedule: Q04DX003 (ip), vehicle: saline): 136 % of control
- T/C (dose: 12.5 mg/kg/injection, schedule: Q01DX001 (ip), vehicle: acetone): 126 % of control
- T/C (dose: 16.5 mg/kg/injection, schedule: Q01DX001 (ip), vehicle: acetone): 141 % of control
- T/C (dose: 18.75 mg/kg/injection, schedule: Q04DX003 (ip), vehicle: saline with Tween-80): 137 % of control
- T/C (dose: 18.75 mg/kg/injection, schedule: Q04DX003 (ip), vehicle: saline): 143 % of control
- T/C (dose: 25.0 mg/kg/injection, schedule: Q01DX001 (ip), vehicle: acetone): 131 and 147 % of control
- T/C (dose: 28.12 mg/kg/injection, schedule: Q04DX003 (ip), vehicle: saline with Tween-80): 130 % of control
- T/C (dose: 28.12 mg/kg/injection, schedule: Q04DX003 (ip), vehicle: saline): 130 % of control
- T/C (dose: 37.5 mg/kg/injection, schedule: Q01DX001 (ip), vehicle: acetone): 145 % of control

SMILES: O=C(O)C1CC(n2cnc3c(=O)[nH]cnc32)CN1 (stereo not drawn)
- T/C (dose: 200.0 mg/kg/injection, schedule: Q04DX002 (ip), vehicle: saline with Tween-80): 125 % of control

SMILES: C=C1C(=O)O[C@@H]2C[C@@H](C)[C@@H]3CC(=O)OC[C@@]3(C)C[C@H]12
- survivor count [4]: 0 of 6

From PubChem BioAssay AID248 (DTP/NCI, 2004)
